The values below come from PubChem BioAssay AID662 (National Center for Advancing Translational Sciences (NCATS), 2007).

As a reminder, the AC50 is the concentration giving half of the maximal activity seen.

The list shows a part of the results. Further columns of the screen follow, without active or inactive calls. Most of these compounds were active or inconclusive in the main read-out, so they are no random draw. Words in brackets tell the shape of the fitted curve; partial curves, single points and poor fits give uncertain potencies.

This experiment in a line: Cell signaling CRE-BLA (Fsk stim). The conditions noted are these: CHO CRE-bla reporter (cAMP response element driving beta-lactamase), forskolin EC10, beta-lactamase ratio; measured here: 460 nm blue channel. The essentials:
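AC50 values, positive or negative, reflect shifts in EC10 NKH 477-induced CRE-bla reporter activity in CHO cells. Incubation lasted 3 h at 37 °C before CCF4 substrate (2 h, room temperature) and ratiometric 460/530 nm reading.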
As for `Cc1ccc(S(=O)(=O)/N=C(/Nc2nc(C)cc(C)n2)N2CCOCC2)cc1`, the half-maximal activity concentration (AC50) was 0.01 µM [rising, full curve, poor fit].
Take `CSc1nc2ccc(S(=O)(=O)Nc3c(C)n(C)n(-c4ccccc4)c3=O)cc2s1`: the AC50 was 15.8 µM [falling, partial curve].
In the case of `CC(C)NS(=O)(=O)c1ccc(OCC(=O)NCc2ccccc2)cc1` it was 25.1 µM [rising, single point].
In the case of `O=C(Nc1nc(-c2ccc(S(=O)(=O)N3CCCC3)cc2)cs1)C1COc2ccccc2O1` (configuration not stated) it was 12.6 µM [falling, partial curve]; in that of `CS(=O)(=O)Nc1cccc(-c2nc(NCc3ccccc3)c3ccccc3n2)c1`, 6.31 µM [rising, partial curve].
In the case of `CCOC(=O)Nc1ccc2c(c1)N(C(=O)CCN1CCOCC1)c1ccccc1S2=O` (configuration not stated) it was 25.1 µM [falling, partial curve]; in that of `COc1ncc2nc(-c3ccccc3)c(=O)n(C3CC3)c2n1`, 12.6 µM [rising, partial curve]; in that of `O=C(NCc1ccco1)c1cc2nc(C3CC3)cc(C(F)(F)F)n2n1`, 10 µM [rising, partial curve].
For `O=c1onc2cnc3ccccc3n12`, the AC50 is 12.6 µM [rising, partial curve, poor fit].
Turning to `C=CCOC(=O)C1=C(C)NC(SCC(=O)OCC)=C(C#N)C1c1ccc(O)c(OC)c1` (configuration not stated), the AC50 is 12.6 µM [rising, single point].
Under `COc1ncc2nc(-c3cc(F)cc(F)c3)c(=O)n(C3CC3)c2n1` stands 20 µM [rising, single point]; under `CCCCNC(=O)CN(C1CCCCC1)S(C)(=O)=O`, 0.0251 µM [falling, full curve]; under `Cc1cc(SCC(=O)Nc2c(C)n(C)n(-c3ccccc3)c2=O)n2c(nc3ccccc32)c1C#N`, 20 µM [rising, single point].
In the case of `O=S(=O)(Nc1cccc(-c2nc3cccnc3s2)c1)c1ccc2c(c1)OCCO2` it was 3.16 µM [rising, partial curve]; in that of `O=C(Nc1cc(C(F)(F)F)ccc1Cl)C1CCN(c2nnc(-n3cccc3)s2)CC1`, 12.6 µM [falling, single point].
As to `Cc1cccc(-n2c(SCc3cc(=O)n4ccsc4n3)nc3ccccc32)c1`, the AC50 is 1.26 µM [rising, partial curve].
For the molecule `O=S(=O)(c1cccc(-c2nnc(SCc3nc4ccccc4s3)o2)c1)N1CCOCC1`, the half-maximal activity concentration (AC50) is 12.6 µM [rising, single point].
Under `O=C(Nc1nnc(C2CCCC2)s1)C1CCN(S(=O)(=O)c2ccc(Cl)cc2)CC1` stands 0.00398 µM [falling, full curve, poor fit]; under `COC(=O)c1[nH]c2cc(OC)c(OC)cc2c1NC(=O)CN1CCN(Cc2ccccc2)CC1`, 12.6 µM [rising, single point].
In the case of `Cn1c(=O)c2c(SCc3cccnc3)nc(C3CC3)nc2n(C)c1=O` it was 3.98 µM [rising, full curve].
Under `COc1cc(-c2nc(-c3ccc(Br)o3)no2)cc(OC)c1OC` stands 2.51 µM [rising, full curve]; under `CCOC(=O)c1oc2ccccc2c1CSc1nnnn1-c1ccc(OC)cc1`, 1.26 µM [rising, full curve]; under `O=C(Nc1cccnc1)C1CCCN1S(=O)(=O)c1ccc(Cl)c(Cl)c1` (configuration not stated), 0.00398 µM [falling, full curve, poor fit].
Consider `CCN1CCN(Cc2nc3c(c(=O)n(C)c(=O)n3C)n2CCc2ccccc2)CC1`, for which the AC50 was 10 µM [rising, single point].
Under `CCCCCn1c(=NC(C)=O)c(C#N)cc2c(=O)n3ccccc3nc21` stands 2.51 µM [rising, full curve].
Under `c1ccc(CCNc2ncnc3nc[nH]c23)cc1` stands 12.6 µM [falling, partial curve]; under `COc1ccc2nc(NC(=O)C3CCCN(S(=O)(=O)c4c(C)noc4C)C3)sc2c1` (configuration not stated), 12.6 µM [rising, partial curve].
Under `CCOc1cc(N2CCOCC2)c(OCC)cc1NC(=O)c1nc2nccc(C)n2n1` stands 12.6 µM [rising, single point]; under `COc1ccc(-c2noc(-c3ccccc3C(=O)Nc3cccnc3)n2)cc1OC`, 10 µM [rising, partial curve].
On to `COc1cccc(CNC(=O)C2CCCN(S(C)(=O)=O)C2)c1` (configuration not stated), for which the AC50 was 2.51 µM [falling, full curve].
In the case of `COc1cccc(Nc2ncc3ncc(=O)n(C[C@H]4CCCO4)c3n2)c1`, the AC50 was 0.794 µM [falling, full curve].
Turning to `COc1cc(OC)cc(-c2nc3nc(C)c(CCC(=O)O)c(C)n3n2)c1`, the concentration at half-maximal activity (AC50) is 0.1 µM [falling, full curve].
Consider `CCCCCOC(=O)c1cc(=O)[nH]c2ccccc12`, for which the AC50 is 12.6 µM [rising, single point].
Under `CC(=O)COc1ccc2c3c(c(=O)oc2c1)CCCC3` stands 10 µM [rising, single point].
In the case of `CCOC(=O)c1sc(N)c(C#N)c1COC(=O)CNC(=O)c1ccccc1` it was 20 µM [rising, single point]; in that of `COC(=O)c1ccc(OCC2c3cc(OC)c(OC)cc3CCN2C(=O)C2CC2)cc1` (configuration not stated), 3.98 µM [rising, partial curve].
In the case of `COc1ccc(CN(Cc2cc3ccc(C)cc3[nH]c2=O)Cc2nnnn2C2CCCC2)cc1` it was 25.1 µM [falling, single point]; in that of `CC(=O)N1CCc2c(sc(NC(=O)c3ccc4c(c3)OCCO4)c2C#N)C1`, 12.6 µM [rising, single point].
As for `CN(C)c1ccc(-c2cc(-n3ccnc3)ncn2)cc1`, the half-maximal activity concentration (AC50) was 10 µM [rising, partial curve].
In the case of `COc1ccc(OC)c(-n2cc3c(=O)n(C)c(=O)n(C)c3c2)c1` it was 12.6 µM [rising, single point].
In the case of `COc1cccc(-c2nc(N3CCN(C)CC3)c3ccccc3n2)c1` it was 7.94 µM [rising, partial curve]; in that of `CNC1=C(Br)C(=O)c2ccncc2C1=O`, 3.98 µM [falling, partial curve].
